{
  "source": "patent US11453640B2",
  "about": "“Small molecules for disrupting the super elongation complex and inhibiting transcription elongation for cancer therapy” (NORTHWESTERN UNIVERSITY, priority 2018, dated 2022)",
  "system": "AFF1 and AFF4 occupancy on chromatin",
  "test": "ChIP-seq of AFF1 and AFF4 chromatin occupancy in HEK293T cells",
  "assay_type": "cell-based, human",
  "conditions": "6 hr",
  "text": "FIG. 1. Peptidomimetic identification of disruptors of the AFF4-CCNT1 interaction within the Super Elongation Complex. (A) Schematic for the identification of small molecule inhibitors of the AFF4-CCNT1 interaction using in silico high-throughput screening. Compounds from the ZINC database were docked with the AFF4-CCNT1 structure (4IMY) using a three-tier glide-docking algorithm, which led to 40 candidates. Residues forming the deep binding pocket of CCNT1 are labeled orange and residues of the AFF4 peptide are labeled red. (B) Validation screening identified KL-1 as a potential SEC disruptor using AlphaLISA screening. […] The Ki constants of both compounds were measured with the AlphaLISA assays. […] 5 μl, 10 and 20 μl cell lysates were loaded and the protein levels of AFF1, AFF4, CCNT1, CDK9 and Tubulin (load control) were determined by western blotting.\nChromatin Immunoprecipitation Sequencing. […] ChIP-seq reads were aligned to the Drosophila genome (UCSC dm3) or human genome (UCSC hgl9). Alignments were processed with Bowtie version 1.1.2, allowing only uniquely mapping reads with up to two mismatches within the 50 bp read. The resulting reads were extended to 150 bp toward the interior of the sequenced fragment and normalized to total reads aligned (reads per million, r.p.m.). […] P-values were calculated with a two-sided Kolmogorov-Smirnov test. […]",
  "note": "At least one structure is not confirmed: it was looked up by name or label, or the drawing left a doubt.",
  "data": [
    {"smiles": "Cc1ccc(Cl)cc1NC(=O)C(=O)CC(=O)c1ccc(F)cc1", "note": "[KL-2, N-(5-chloro-2-methylphenyl)-4-oxo-(4-fluorophenyl)-2-oxobutanamide]", "values": [
      {"measurement": "chromatin occupancy of AFF1 and AFF4", "value": "decreased occupancy of AFF1 and AFF4"}
    ]}
  ]
}
